These results are taken from article PMC5998563.

Protein sequences, listed by entry. Tags and fused reporters are not part of them. Residues count along the entry.
UniProt P38646, residues 47-679: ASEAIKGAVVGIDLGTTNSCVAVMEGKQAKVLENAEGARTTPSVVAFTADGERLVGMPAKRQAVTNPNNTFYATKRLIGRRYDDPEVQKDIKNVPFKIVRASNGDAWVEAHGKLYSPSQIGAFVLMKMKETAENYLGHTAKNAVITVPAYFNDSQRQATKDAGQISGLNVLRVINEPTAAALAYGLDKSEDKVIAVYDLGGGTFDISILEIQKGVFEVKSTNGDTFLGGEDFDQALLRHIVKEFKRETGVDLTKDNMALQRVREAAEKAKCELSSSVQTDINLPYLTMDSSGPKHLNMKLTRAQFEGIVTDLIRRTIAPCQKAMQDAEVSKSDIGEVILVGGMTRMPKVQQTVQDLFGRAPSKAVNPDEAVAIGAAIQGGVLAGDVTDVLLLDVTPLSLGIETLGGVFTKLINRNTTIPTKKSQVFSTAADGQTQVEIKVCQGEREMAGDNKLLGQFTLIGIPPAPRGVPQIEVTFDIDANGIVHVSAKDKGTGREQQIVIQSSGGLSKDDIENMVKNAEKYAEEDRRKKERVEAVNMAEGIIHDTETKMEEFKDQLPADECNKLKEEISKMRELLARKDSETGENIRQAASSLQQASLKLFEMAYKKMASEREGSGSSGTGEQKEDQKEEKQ

For the assay, the target named is 75 kDa glucose-regulated protein (GRP75) (human (endogenous in primary myoblasts)) (UniProt P38646). The assay can be described thus: proximity ligation; Duolink II in situ PLA in human myoblasts transfected with empty vector (pCMV) or mycREDD1; cells fixed with 4% formaldehyde, permeabilized with 0.1% Triton X100; fluorescence read-out.

Results are given in words; binding and its absence hold for the method and conditions named. In cells and extracts the contact can be indirect. Some results given as binding are weak or reduced against the parent protein; the word gives no strength. Sequences can lack the tags named with a protein.

B1: murine REDD1 fused to Myc (protein, UniProt Q9D3F7 1-229)
chain: MPSLWDRFSSSSSSSSSSRTPAADRPPRSAWGSAAREEGLDRCASLESSDCESLDSSNSGFGPEEDSSYLDGVSLPDFELLSDPEDEHLCANLMQLLQESLSQARLGSRRPARLLMPSQLVSQVGKELLRLAYSEPCGLRGALLDVCVEQGKSCHSVAQLALDPSLVPTFQLTLVLRLDSRLWPKIQGLLSSANSSLVPGYSQSLTLSTGFRVIKKKLYSSEQLLIEEC
Turning to B1, the binding entry is “binds”.
